Reference: doi:10.1101/2021.01.10.425752
Results are given in words; binding and its absence hold for the method and conditions named. Some binding calls cover weakened binding; strength is not graded here.

Biological target: T1, RhopH2 (P. falciparum) (UniProt C0H571)
T1 sequence: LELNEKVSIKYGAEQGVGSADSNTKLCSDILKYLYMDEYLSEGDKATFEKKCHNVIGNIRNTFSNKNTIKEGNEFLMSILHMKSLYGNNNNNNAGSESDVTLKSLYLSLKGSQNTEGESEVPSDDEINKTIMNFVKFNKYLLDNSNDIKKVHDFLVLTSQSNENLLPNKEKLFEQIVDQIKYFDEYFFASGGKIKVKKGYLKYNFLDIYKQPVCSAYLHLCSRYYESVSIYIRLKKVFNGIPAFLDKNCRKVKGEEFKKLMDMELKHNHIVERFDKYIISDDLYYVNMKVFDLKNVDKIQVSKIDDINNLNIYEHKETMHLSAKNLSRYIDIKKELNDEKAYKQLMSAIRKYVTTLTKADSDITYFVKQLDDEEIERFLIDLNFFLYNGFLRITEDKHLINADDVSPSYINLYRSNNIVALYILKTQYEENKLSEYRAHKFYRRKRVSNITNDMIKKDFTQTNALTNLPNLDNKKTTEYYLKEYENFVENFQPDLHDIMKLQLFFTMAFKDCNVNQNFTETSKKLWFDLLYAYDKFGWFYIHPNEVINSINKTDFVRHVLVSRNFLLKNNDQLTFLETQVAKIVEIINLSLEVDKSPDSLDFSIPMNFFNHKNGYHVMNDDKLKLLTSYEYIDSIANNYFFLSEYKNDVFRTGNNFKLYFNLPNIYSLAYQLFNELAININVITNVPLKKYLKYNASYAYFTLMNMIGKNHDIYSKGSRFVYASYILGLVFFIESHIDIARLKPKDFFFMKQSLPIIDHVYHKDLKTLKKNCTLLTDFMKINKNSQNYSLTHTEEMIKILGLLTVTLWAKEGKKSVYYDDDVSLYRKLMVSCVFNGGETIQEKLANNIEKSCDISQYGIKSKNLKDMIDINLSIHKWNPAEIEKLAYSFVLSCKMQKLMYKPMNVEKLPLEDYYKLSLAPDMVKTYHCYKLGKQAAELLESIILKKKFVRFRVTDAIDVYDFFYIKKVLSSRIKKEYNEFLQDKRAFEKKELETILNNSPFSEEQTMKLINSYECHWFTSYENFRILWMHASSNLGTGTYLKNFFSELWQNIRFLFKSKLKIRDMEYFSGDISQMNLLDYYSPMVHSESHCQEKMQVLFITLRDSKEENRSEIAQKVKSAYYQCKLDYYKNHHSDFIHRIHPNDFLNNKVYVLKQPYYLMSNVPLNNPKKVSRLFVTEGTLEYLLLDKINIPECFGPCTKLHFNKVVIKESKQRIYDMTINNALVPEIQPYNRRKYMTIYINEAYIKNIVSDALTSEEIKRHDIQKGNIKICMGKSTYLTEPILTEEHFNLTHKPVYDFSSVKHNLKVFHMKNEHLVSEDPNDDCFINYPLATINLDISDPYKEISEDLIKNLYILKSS
Assay: cryo-EM structure

B1: RhopH3 (protein, UniProt Q8I395 25-897)
chain: KDVFAGFVTKKLKTLLDCNFALYYNFKGNGPDAGSFLDFVDEPEQFYWFVEHFLSVKFRVPKHLKDKNIHNFTPCLNRSWVSEFLKEYEEPFVNPVMKFLDKEQRLFFTYNFGDVEPQGKYTYFPVKEFHKYCILPPLIKTNIKDGESGEFLKYQLNKEEYKVFLSSVGSQMTAIKNLYSTVEDEQRKQLLKVIIENESTNDISVQCPTYNIKLHYTKECANSNNILKCIDEFLRKTCEKKTESKHPSADLCEHLQFLFESLKNPYLDNFKKFMTNSDFTLIKPQSVWNVPIFDIYKPKNYLDSVQNLDTECFKKLNSKNLIFLSFHDDIPNNPYYNVELQEIVKLSTYTYSIFDKLYNFFFVFKKSGAPISPVSVKELSHNITDFSFKEDNSEIQCQNVRKSLDLEVDVETMKGIAAEKLCKIIEKFILTKDDASKPEKSDIHRGFRILCILISTHVEAYNIVRQLLNMESMISLTRYTSLYIHKFFKSVTLLKGNFLYKNNKAIRYSRACSKASLHVPSVLYRRNIYIPETFLSLYLGLSNLVSSNPSSPFFEYAIIEFLVTYYNKGSEKFVLYFISIISVLYINEYYYEQLSCFYPKEFELIKSRMIHPNIVDRILKGIDNLMKSTRYDKMRTMYLDFESSDIFSREKVFTALYNFDSFIKTNEQLKKKNLEEISEIPVQLETSNDGIGYRKQDVLYETDKPQTMDEASYEETVDEDAHHVNEKQHSAHFLDAIAEKDILEEKTKDQDLEIELYKYMGPLKEQSKSTSAASTSDEISGSEGPSTESTSTGNQGEDKTTDNTYKEMEELEEAEGTSNLKKGLEFYKSSLKLDQLDKEKPKKKKSKRKKKRDSSSDRILLEESKTFTSENEL
- binding: binds
